Values joined by “and” are separate entries in the source; they are usually repeats but may differ in a detail not shown here. Identical values can stand only once. Counter-ions that a name gives are not always drawn.
Assays:
[1] = Dye stain in the B&W format; settings: Table VII, various coating sets; for Stain (maximum absorbance): at the λmax on the same line, RP X-OMAT processing, 0.8 mmole/mole Ag; for Stain λmax: wavelength of the stain absorbance on the same line
[2] = Dye speed in the B&W format (spectral sensitization); settings: Table VI, 0.8 mmole/mole Ag, various coating sets; for SR (sensitizing ratio): speed at λ-max minus intrinsic speed at 400 nm plus 200 (log E × 100)
[3] = Dye stain in the color format; settings: Table VIII; for Stain (maximum absorbance): at the stain λmax on the same line, 0.4 mmole/mole Ag; for Stain λmax: wavelength of the stain on the same line

CCC(=Cc1oc2ccc(-c3cccc(NC(C)=O)c3)cc2[n+]1CCC(C)S(=O)(=O)[O-])C=C1Oc2ccc(Cl)cc2N1CCCS(=O)(=O)O (centres unmarked) [Dye I-13]
Stain (maximum absorbance) [1]: 47 OD × 10^3 | Stain λmax [1]: 508 | λmax (sensitization) (nm) [2]: 541 | SR (sensitizing ratio) [2]: 238

CCC(=Cc1oc2ccc(NC(=O)c3ccccc3O)cc2[n+]1CCC(C)S(=O)(=O)[O-])C=C1Oc2ccc(F)cc2N1CCCS(=O)(=O)O (centres unmarked) [Dye I-18]
Stain (maximum absorbance) [1]: 39 OD × 10^3 | Stain λmax [1]: 508

CCC(=Cc1oc2ccc(NC(=O)c3cccc(O)c3)cc2[n+]1CCCS(=O)(=O)O)C=C1Oc2ccc(Cl)cc2N1CCCS(=O)(=O)[O-] [Dye I-38]
λmax (sensitization) (nm) [2]: 544 | SR (sensitizing ratio) [2]: 254

CCC(=Cc1oc2ccc(NC(=O)c3ccco3)cc2[n+]1CCCCS(=O)(=O)O)C=C1Oc2ccc(Cl)cc2N1CCCS(=O)(=O)[O-] [Dye I-23, Anhydro-5-chloro-9-ethyl-5'-(2-furancarboxamido)-3'-(4-sulfobutyl)-3-(3-sulfopropyl)oxacarbocyanine triethylammonium salt]
Stain (maximum absorbance) [1]: 41 OD × 10^3 | Stain λmax [1]: 510

CCC(=Cc1oc2ccc(NC(=O)c3ccccc3)cc2[n+]1CCS(=O)(=O)[O-])C=C1Oc2ccc(NC(=O)c3ccccc3)cc2N1CCS(=O)(=O)O [Dye I-5]
Stain (maximum absorbance) [1]: 91 OD × 10^3 and 71 OD × 10^3 | Stain λmax [1]: 540 and 510 | λmax (sensitization) (nm) [2]: 539 | SR (sensitizing ratio) [2]: 236

CCC(=Cc1oc2ccc(-c3ccco3)cc2[n+]1CCCS(=O)(=O)O)C=C1Oc2ccc(Cl)cc2N1CCS(=O)(=O)[O-] [Dye I-48]
Stain (maximum absorbance) [1]: 36 OD × 10^3 | Stain λmax [1]: 510

CCC(=Cc1oc2ccc(NC(=O)c3ccc[nH]3)cc2[n+]1CCCS(=O)(=O)O)C=C1Oc2ccc(Cl)cc2N1CCCS(=O)(=O)[O-] [Dye I-32]
Stain (maximum absorbance) [1]: 47 OD × 10^3 and 35 OD × 10^3 | Stain λmax [1]: 510 and 490 | λmax (sensitization) (nm) [2]: 546 | Stain (maximum absorbance) ([3]; set not marked #): 7 OD × 10^3 | Stain λmax ([3]; set not marked #): 510

CCC(=Cc1oc2ccc(-c3ccc(NC(C)=O)cc3)cc2[n+]1CCS(=O)(=O)[O-])C=C1Oc2ccc(Br)cc2N1CCCS(=O)(=O)O [Dye I-12]
λmax (sensitization) (nm) [2]: 547 | SR (sensitizing ratio) [2]: 249

CCC(=Cc1oc2ccc(-c3ccco3)cc2[n+]1CCCS(=O)(=O)O)C=C1Oc2ccc(F)cc2N1CCCS(=O)(=O)[O-] [Dye I-49]
Stain (maximum absorbance) [1]: 36 OD × 10^3 | Stain λmax [1]: 510 | Stain (maximum absorbance) ([3]; coating set marked #): 15 OD × 10^3 | Stain λmax ([3]; coating set marked #): 510

CCC(=Cc1oc2ccc(-n3cccc3)cc2[n+]1CCCS(=O)(=O)O)C=C1Oc2ccc(Cl)cc2N1CCCS(=O)(=O)[O-] [Dye I-43, Anhydro-5-chloro-9-ethyl-5'-(pyrrol-1-yl)-3,3'-di(3-sulfopropyl)oxacarbocyanine hydroxide potassium salt]
Stain (maximum absorbance) [1]: 36 OD × 10^3 | Stain λmax [1]: 510 | Stain (maximum absorbance) ([3]; coating set marked #): 22 OD × 10^3 | Stain λmax ([3]; coating set marked #): 510

CCC(=Cc1oc2ccc(NC(=O)c3ccccc3)cc2[n+]1CCCS(=O)(=O)[O-])C=C1Oc2ccc(Cl)cc2N1CCCS(=O)(=O)O [Dye I-2]
Stain (maximum absorbance) [1]: 41 OD × 10^3 and 61 OD × 10^3 | Stain λmax [1]: 510 and 550 | Stain (maximum absorbance) ([3]; set not marked #): 12 OD × 10^3 | Stain λmax ([3]; set not marked #): 510

CCC(=Cc1oc2ccc(-c3ccccc3)cc2[n+]1CCC(C)S(=O)(=O)O)C=C1Oc2ccc(-c3ccccc3)cc2N1CCC(C)S(=O)(=O)[O-] (centres unmarked) [Dye C-3, reference compound]
Stain λmax ([3]; set not marked #): 512 and 550

CCC(=Cc1oc2ccc(NC(=O)c3ccc[nH]3)cc2[n+]1CCC(C)S(=O)(=O)O)C=C1Oc2ccc(Cl)cc2N1CCCS(=O)(=O)[O-] (centres unmarked) [Dye I-31]
Stain (maximum absorbance) [1]: 24 OD × 10^3 and 20 OD × 10^3 | Stain λmax [1]: 510 and 540 | λmax (sensitization) (nm) [2]: 548 | SR (sensitizing ratio) [2]: 247

CCC(=Cc1oc2ccc(NC(=O)c3ccc[nH]3)cc2[n+]1CCCS(=O)(=O)O)C=C1Oc2ccc(Br)cc2N1CCCS(=O)(=O)[O-] [Dye I-34]
λmax (sensitization) (nm) [2]: 546 | SR (sensitizing ratio) [2]: 254

CCC(=Cc1oc2ccc(-c3ccc(NC(C)=O)cc3)cc2[n+]1CCCS(=O)(=O)[O-])C=C1Oc2ccc(F)cc2N1CCCS(=O)(=O)O [Dye I-10]
Stain (maximum absorbance) [1]: 50 OD × 10^3 | Stain λmax [1]: 508 | λmax (sensitization) (nm) [2]: 530 | SR (sensitizing ratio) [2]: 231

CCC(=Cc1oc2ccc(NC(=O)c3ccc[nH]3)cc2[n+]1CCC(C)S(=O)(=O)O)C=C1Oc2ccc(F)cc2N1CCCS(=O)(=O)[O-] (centres unmarked) [Dye I-33]
Stain (maximum absorbance) [1]: 30 OD × 10^3 | Stain λmax [1]: 508

CCC(=Cc1oc2ccc(N3C(=O)C(C)=C(C)C3=O)cc2[n+]1CCCS(=O)(=O)O)C=C1Oc2ccc(N3C(=O)C(C)=C(C)C3=O)cc2N1CCCS(=O)(=O)[O-] [Dye C-9, reference compound]
Stain (maximum absorbance) [1]: 29 OD × 10^3 | Stain λmax [1]: 505 | λmax (sensitization) (nm) [2]: 520 | SR (sensitizing ratio) [2]: 128

CCC(=Cc1oc2ccc(NC(=O)c3ccco3)cc2[n+]1CCCS(=O)(=O)O)C=C1Oc2ccc(F)cc2N1CCCS(=O)(=O)[O-] [Dye I-27]
Stain (maximum absorbance) [1]: 40 OD × 10^3 | Stain λmax [1]: 508 | λmax (sensitization) (nm) [2]: 535 | SR (sensitizing ratio) [2]: 231

CCC(=Cc1oc2ccc(NC(=O)c3c(O)cccc3O)cc2[n+]1CCCCS(=O)(=O)[O-])C=C1Oc2ccc(Cl)cc2N1CCCS(=O)(=O)O [Dye I-20]
Stain (maximum absorbance) [1]: 27 OD × 10^3 and 30 OD × 10^3 | Stain λmax [1]: 490 and 510 | λmax (sensitization) (nm) [2]: 541 | SR (sensitizing ratio) [2]: 237

CCC(=Cc1oc2ccc(NC(=O)c3ccccc3O)cc2[n+]1CCS(=O)(=O)[O-])C=C1Oc2ccc(NC(=O)c3ccccc3O)cc2N1CCS(=O)(=O)O [Dye I-19]
Stain (maximum absorbance) [1]: > 100 OD × 10^3 | Stain λmax [1]: 540

CCC(=Cc1oc2ccc(-c3ccc[nH]3)cc2[n+]1CCCS(=O)(=O)O)C=C1Oc2ccc(F)cc2N1CCCS(=O)(=O)[O-] [Dye I-46]
Stain (maximum absorbance) [1]: 38 OD × 10^3 | Stain λmax [1]: 518

CCC(=Cc1oc2ccc(NC(=O)c3ccc[nH]3)cc2[n+]1CCCS(=O)(=O)O)C=C1Oc2ccc(I)cc2N1CCCS(=O)(=O)[O-] [Dye I-36]
λmax (sensitization) (nm) [2]: 546 | SR (sensitizing ratio) [2]: 249

CCC(=Cc1oc2ccc(NC(=O)c3cccs3)cc2[n+]1CCC(C)S(=O)(=O)O)C=C1Oc2ccc(Cl)cc2N1CCCS(=O)(=O)[O-] (centres unmarked) [Dye I-21]
Stain (maximum absorbance) [1]: 64 OD × 10^3 and 88 OD × 10^3 | Stain λmax [1]: 510 and 543 | λmax (sensitization) (nm) [2]: 546 | SR (sensitizing ratio) [2]: 249

CCC(=Cc1oc2ccc(NC(=O)c3ccccc3)cc2[n+]1CCC(C)S(=O)(=O)[O-])C=C1Oc2ccc(Cl)cc2N1CCCS(=O)(=O)O (centres unmarked) [Dye I-1]
Stain (maximum absorbance) [1]: 41 OD × 10^3 and 31 OD × 10^3 | Stain λmax [1]: 510 and 543 | λmax (sensitization) (nm) [2]: 542 | SR (sensitizing ratio) [2]: 249

CCC(=Cc1oc2ccc(-c3cccs3)cc2[n+]1CCCS(=O)(=O)O)C=C1Oc2ccc(Cl)cc2N1CCCS(=O)(=O)[O-] [Dye C-8, reference compound]
Stain (maximum absorbance) ([3]; coating set marked #): 38 OD × 10^3 | Stain λmax ([3]; coating set marked #): 512

CCC(=Cc1oc2ccc(-c3ccc(NC(C)=O)cc3)cc2[n+]1CCS(=O)(=O)[O-])C=C1Oc2ccc(-c3ccc(NC(C)=O)cc3)cc2N1CCS(=O)(=O)O [Dye I-11]
Stain (maximum absorbance) [1]: 84 OD × 10^3 and 78 OD × 10^3 | Stain λmax [1]: 500 and 525

CCC(=Cc1oc2ccc(-c3ccc(NC(C)=O)cc3)cc2[n+]1CCCS(=O)(=O)[O-])C=C1Oc2ccc(Cl)cc2N1CCCS(=O)(=O)O [Dye I-6]
Stain (maximum absorbance) [1]: 47 OD × 10^3 | Stain λmax [1]: 510

CCC(=Cc1oc2ccc(-c3ccc(NC(C)=O)cc3)cc2[n+]1CCS(=O)(=O)[O-])C=C1Oc2ccc(F)cc2N1CCCS(=O)(=O)O [Dye I-9]
Stain (maximum absorbance) [1]: 46 OD × 10^3 | Stain λmax [1]: 508

O=C(Nc1ccc2sc(C=C3Sc4ccc(Cl)cc4N3CCCS(=O)(=O)[O-])[n+](CCCS(=O)(=O)O)c2c1)c1ccccc1O [Dye I-35]
Stain (maximum absorbance) ([3]; set not marked #): 34 OD × 10^3 | Stain λmax ([3]; set not marked #): 465

CCC(=Cc1oc2ccc(C(=O)Nc3ccccc3)cc2[n+]1CCCS(=O)(=O)O)C=C1Oc2ccc(Cl)cc2N1CCCS(=O)(=O)[O-] [Dye I-37]
Stain (maximum absorbance) ([3]; set not marked #): 12 OD × 10^3 | Stain λmax ([3]; set not marked #): 505

CCC(=Cc1oc2ccc(-c3ccccc3)cc2[n+]1CCCS(=O)(=O)O)C=C1Oc2ccc(NC(C)=O)cc2N1CCCS(=O)(=O)[O-] [Dye C-5, reference compound]
Stain (maximum absorbance) ([3]; set not marked #): 24 OD × 10^3 | Stain λmax ([3]; set not marked #): 512

CCC(=Cc1oc2ccc(-c3ccc(NC(C)=O)cc3)cc2[n+]1CCC(C)S(=O)(=O)[O-])C=C1Oc2ccc(Cl)cc2N1CCCS(=O)(=O)O (centres unmarked) [Dye I-7]
Stain (maximum absorbance) [1]: 51 OD × 10^3 | Stain λmax [1]: 508 | λmax (sensitization) (nm) [2]: 538 | SR (sensitizing ratio) [2]: 236

CCC(=Cc1oc2ccc(NC(=O)c3cccs3)cc2[n+]1CCS(=O)(=O)O)C=C1Oc2ccc(NC(=O)c3cccs3)cc2N1CCS(=O)(=O)[O-] [Dye I-22]
Stain (maximum absorbance) [1]: 50 OD × 10^3 and 45 OD × 10^3 | Stain λmax [1]: 490 and 510 | λmax (sensitization) (nm) [2]: 495 | SR (sensitizing ratio) [2]: 231

CCC(=Cc1oc2ccc(-c3ccc(NC(C)=O)cc3)cc2[n+]1CCS(=O)(=O)[O-])C=C1Oc2ccc(Cl)cc2N1CCCS(=O)(=O)O [Dye I-8]
Stain (maximum absorbance) [1]: 50 OD × 10^3 | Stain λmax [1]: 508 | Stain (maximum absorbance) ([3]; set not marked #): 13 OD × 10^3 | Stain λmax ([3]; set not marked #): 510

CCC(=Cc1oc2ccc(NC(=O)c3ccccc3)cc2[n+]1CCC(C)S(=O)(=O)[O-])C=C1Oc2ccc(F)cc2N1CCCS(=O)(=O)O (centres unmarked) [Dye I-4]
Stain (maximum absorbance) [1]: 42 OD × 10^3 | Stain λmax [1]: 505 | λmax (sensitization) (nm) [2]: 540 | SR (sensitizing ratio) [2]: 240

Reference: patent publication US5492802A, “Dye compounds and photographic elements containing such dyes” (Eastman Kodak Company, priority 1994, dated 1996)
